Values from PubChem BioAssay AID504784 (Drosophila RNAi Screening Center, 2011)
Screen: 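Fly genes whose silencing alters how much lipid cells keep in droplets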 (primary screen). Cells: Drosophila Kc167 embryonic cells. Knock-down reagent: long dsRNA against Drosophila genes, about 250 ng dsRNA per well. Timing: 4 days. Treatment: cells fed 400 µM oleic acid bound to BSA. Detection: 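Cells imaged and segmented; ratio of lipid droplet area to nuclear area, log-transformed, then normalised as a B-score over the screen; higher means more stored lipid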. Direction: droplet/nuclear area B-score: higher = more stored lipid (overstorage).
In all, the deposit lists about 17,000 reagents; this is a random part of those that have a named target and a result. 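Each column is one replicate's B-score; the combined score over replicates was not deposited, so single values may mislead.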 Names joined by + are all predicted targets of the reagent.

no.	gene knocked down	DRSC id	droplet/nuclear area B-score, replicate 1	droplet/nuclear area B-score, replicate 2	droplet/nuclear area B-score, replicate 3
1	CG3795	DRSC18593	-0.346		
2	CG13003	DRSC19522		0.965	
3	CG12784	DRSC14539	0.0421	0.354	
4	CG30158	DRSC04956	1.1	1.14	
5	CG30158	DRSC04974	1.13	2.21	
6	CG30158	DRSC04975	-0.902	-3.61	
7	CG30158	DRSC05012	-0.304	-2.46	
8	mars	DRSC06656	-0.925	0.337	-0.704
9	CG4860	DRSC15664	-0.291	-0.479	-0.099
10	CG4860	DRSC21755	-1.16	-0.348	
11	tsu	DRSC07265	1.07	0.0882	
12	CR33317	DRSC02653	0.112	-1.12	
13	CG14070	DRSC02373	-1.16	-0.43	
14	CG31776	DRSC00716	-0.377	-0.246	
15	a10	DRSC11319	2.3	0.1	
16	CG1136	DRSC08184	-1.58	-0.468	
17	otu	DRSC18811	1.53	0.957	
18	CG7029	DRSC16177	-0.216	-0.829	
19	CG17140 + CG17139	DRSC02585	-0.452	0.0266	
20	CG17140 + CG17139	DRSC02586	-0.198	-0.338	
21	dpa	DRSC07604	-0.532	0.0848	
22	CG14566	DRSC11727	0.395	0.431	
23	CG13137	DRSC02234	-0.671	-0.827	
24	CG15472	DRSC18055	0.707	0.225	
25	Fur2	DRSC19817	0.0062	1.68	
26	Nos	DRSC03381	0.403	0.127	
27	CG13705	DRSC08314	0.0347	0.145	
28	CG13705	DRSC22691	-1.01	-1.56	
29	CG13117	DRSC02215	-0.0348	-1.89	
30	Pen	DRSC03396	0.0158	-0.742	
31	Dredd	DRSC18461	0.533		
32	Tsp	DRSC02144	0.945	-0.502	
33	Tsp	DRSC02145	0.178	1.61	
34	CG34159	DRSC02885	-0.343	0.436	
35	CG34159	DRSC23222	-0.681	0.49	
36	ATPsynB	DRSC09659	4.18	1.92	
37	CG1344	DRSC04837	0.913	0.802	
38	DUBAI + Tmem18	DRSC05344	0.674	-0.00318	
39	CG30430	DRSC22260	0.302	0.803	
40	muc	DRSC02832	0.508	-2.2	
41	muc	DRSC21940	-1.35	1.38	
42	l(3)mbt	DRSC16983	1.87		
43	CG14632 (retired record)	DRSC17942	-0.291	1.84	-0.758
44	CG7882	DRSC04899	-0.243	0.0184	
45	CG3502	DRSC04381	1.63	-0.401	
46	ca	DRSC15305	1.37		
47	ca	DRSC15306	0.703	-1.46	
48	ca	DRSC16314	1.4	0.942	
49	CG9497	DRSC03234	1.3	2.53	
50	Polr1H	DRSC14594	1.47	-0.107	
51	CG13321	DRSC06358	3.31	1.79	
52	asf1	DRSC11324	0.156	0.671	-0.652
53	GstT1	DRSC06243	-0.283	-0.926	
54	CG15731	DRSC19698	-1.96	-2.07	-0.673
55	CG15731	DRSC21820	0.256	1.71	
56	CG14834	DRSC10204	-1.75	-1.38	

Ordered by “droplet/nuclear area B-score, replicate 1” (highest first): 5 of the entries above
gene knocked down	DRSC id	droplet/nuclear area B-score, replicate 1	droplet/nuclear area B-score, replicate 2	droplet/nuclear area B-score, replicate 3
ATPsynB	DRSC09659	4.18	1.92	
CG1344	DRSC04837	0.913	0.802	
Tsp	DRSC02145	0.178	1.61	
CG34159	DRSC02885	-0.343	0.436	
CG34159	DRSC23222	-0.681	0.49	
